Numbering of substitutions follows the chain as printed. Results are given in words; binding and its absence hold for the method and conditions named. Some results given as binding are weak or reduced against the parent protein; the word gives no strength.
T1: human CC chemokine receptor 1 (human CCR1) (human) (UniProt P32246)
T1 sequence: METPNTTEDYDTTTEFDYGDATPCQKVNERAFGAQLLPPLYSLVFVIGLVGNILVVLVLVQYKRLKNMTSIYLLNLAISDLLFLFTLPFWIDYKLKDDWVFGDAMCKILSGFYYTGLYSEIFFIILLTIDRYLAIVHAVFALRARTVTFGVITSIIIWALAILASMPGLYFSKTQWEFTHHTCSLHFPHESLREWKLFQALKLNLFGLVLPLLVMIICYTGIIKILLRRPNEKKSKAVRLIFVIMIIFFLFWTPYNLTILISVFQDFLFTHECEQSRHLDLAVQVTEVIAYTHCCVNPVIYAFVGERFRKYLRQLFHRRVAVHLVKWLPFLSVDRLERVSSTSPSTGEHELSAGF

B1: hzKM5907 LV6HV0 antibody (antibody, V domains shown)
VH: EVQLLESGGGLVQPGGSLRLSCAASGFTFSRYGMSWVRQAPGKGLEWVSSISATFTYTYYTDNVKGRFTISRDNSKNTLYLQMNSLRAEDTAVYYCAKQDNYAWFDSWGQGTLVTVSS
VL: DVVMTQTPLSLPVTLGEPASISCRSSQSIVHSNGNTFLEWYLKKPGQSPKLLIYKVSSRFSGVPDRFSGSGSGTDFTLKISRVEAEDVGVYYCFQGSHIPWTFGGGTKLEIK
B2: hzKM5907 LV6HV7 antibody (antibody, V domains shown)
VH: B1 VH with L4V, G44R, S49A, A92G, V93M, A97T, K98R
VL: B1 VL

Biological target: T1, human CC chemokine receptor 1 (human CCR1) (human)
Experiment: flow cytometry on CHO-S-hCCR1 cells; bound = fluorescence 10 times or more that of isotype control hzDNP1

Row | Binder | binding
1 | B1 | binds
2 | B2 | binds
